This is an account of results in paper PMC7819943, “Rice protein-binding microarrays: a tool to detect cis-acting elements near promoter regions in rice”.

Some of the results follow.

This experiment addresses T1, OsSMF1 (Oryza sativa, UniProt Q6ZLB0 1-436).
T1 sequence: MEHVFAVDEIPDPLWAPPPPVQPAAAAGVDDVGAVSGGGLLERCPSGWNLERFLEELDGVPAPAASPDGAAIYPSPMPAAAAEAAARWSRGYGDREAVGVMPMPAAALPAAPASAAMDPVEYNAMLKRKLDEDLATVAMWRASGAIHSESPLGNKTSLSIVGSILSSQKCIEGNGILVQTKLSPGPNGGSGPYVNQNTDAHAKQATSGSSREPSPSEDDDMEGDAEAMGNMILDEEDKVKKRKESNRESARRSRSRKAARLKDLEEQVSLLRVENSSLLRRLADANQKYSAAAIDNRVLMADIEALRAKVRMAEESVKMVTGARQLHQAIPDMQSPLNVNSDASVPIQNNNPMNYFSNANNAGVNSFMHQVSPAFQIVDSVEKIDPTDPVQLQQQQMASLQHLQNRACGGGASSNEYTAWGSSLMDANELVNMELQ
Kind of experiment: protein-binding microarray (RPBM); PBS, 2% BSA, 51.3 ng/ul salmon testes DNA, 50 uM zinc acetate, 200 nM TF, 25 C, 1 h; high values mean tight binding. To be noted: protein: recombinant; tags: N-terminal polyhistidine and DsRed monomer fusion (pET32a); chain copies: 2; label: CyDye5-dUTP incorporated in the synthesized complementary strand; 3' TTTTT single-stranded linker to array surface; dsDNA, one strand shown. Summed up: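 The binding signal is fluorescence intensity per array feature (arbitrary units). Readings came from an Axon 4000B scanner after a washed, 2% BSA-blocked, double-stranded custom Agilent array had been incubated for 1 h at 25 °C with 200 nM protein and 50 µM zinc acetate. The protein was a Ni–NTA-purified transcription factor fused N-terminally to polyhistidine and DsRed, expressed in E. coli BL21-CodonPlus.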
In the case of “CCTTCGCCTCGGCGTGGAGGAGAGTGAGGACGGCCCACGCCGGAGTCACCTAGTGCAG”, the binding signal is 23600 fluorescence intensity (a.u.). To “TAGAAGGGAGATTAAAATAAAATTTCTTGTACTGTGTGAGCGGAGTCACCTAGTGCAG” belongs 5590 fluorescence intensity (a.u.); to “AATCATACATGCTTTATCTTAGGTGTCTATCTTGCTGTGGCGGAGTCACCTAGTGCAG”, 4140 fluorescence intensity (a.u.); to “CCGTTGCGTCGTCATAGACAAAAGTCGGTTTTGCTTTTGGCGGAGTCACCTAGTGCAG”, 4070 fluorescence intensity (a.u.).

For “TCTCCCCAACCCCACTCACTCGCCGCGTCGGCGACCACCACGGAGTCACCTAGTGCAG”, the binding signal is 4630 fluorescence intensity (a.u.).

Consider “CGTTTGTTTTGCAGGTGGCGATCGCGCCGGATCCGGTGCTCGGAGTCACCTAGTGCAG”, for which the binding signal is 33700 fluorescence intensity (a.u.). To “CCTACTGATCCCAAGCGTCACAATGGGGCAATGGGCCCTCCGGAGTCACCTAGTGCAG” belongs 3920 fluorescence intensity (a.u.); to “TACTATAGTGAAAATATAGTTAAAGTGCCTGTGGATATGACGGAGTCACCTAGTGCAG”, 3380 fluorescence intensity (a.u.). Under “ATCTGGAACTAAAGATGGTAATGCCACGTGGAAGGGCTTCCGGAGTCACCTAGTGCAG” stands 22800 fluorescence intensity (a.u.); under “TTCACATAATATTTGACCATTCATCTTATTCAAAAGTTTACGGAGTCACCTAGTGCAG”, 3800 fluorescence intensity (a.u.). As for “GTAGCTACAATATTGGGGCGTACGATTAGGCCCATGTCATCGGAGTCACCTAGTGCAG”, the binding signal is 4140 fluorescence intensity (a.u.). Under “CAGGGGTACTATGTTGCAAAAGGGTCAGGACGTGGTAAAACGGAGTCACCTAGTGCAG” stands 3830 fluorescence intensity (a.u.); under “GCTCCAATCCTGTCCCTTCCTCATAGGGATTAGATGAACACGGAGTCACCTAGTGCAG”, 19500 fluorescence intensity (a.u.); under “AGCTATTATATATGTCCACTCACTCGATTCCTTCGACCAACGGAGTCACCTAGTGCAG”, 3440 fluorescence intensity (a.u.). Under “ATCTGAAAACCGATTCAGACACGGATGACGTACCAAAATCCGGAGTCACCTAGTGCAG” stands 4360 fluorescence intensity (a.u.); under “CAGGTTTATCTCCACGTGGCAAGTGGCAACACGGCCCATCCGGAGTCACCTAGTGCAG”, 13000 fluorescence intensity (a.u.).

Take “CTGCAGCAAACGACCAGCCATGTCACAGGTTGTGAAGGTCCGGAGTCACCTAGTGCAG”: the binding signal was 4600 fluorescence intensity (a.u.). To “TAAATCGATCTCTTCGTCAGCAATAATGCGGACGCCATCACGGAGTCACCTAGTGCAG” belongs 3890 fluorescence intensity (a.u.); to “CTCCCAGCAGCTGGTAGTGCATGTACGTTAGCACATTCCACGGAGTCACCTAGTGCAG”, 3830 fluorescence intensity (a.u.). Under “TGGCATCTCTATCACTAACACTCTTCTTCTTCCCTTGGCGCGGAGTCACCTAGTGCAG” stands 10300 fluorescence intensity (a.u.). Under “CGCCGGCCGGGATGGTGCCGCACGCCCACGTCGGGCCCGGCGGAGTCACCTAGTGCAG” stands 3750 fluorescence intensity (a.u.); under “ACATGGACTGTGGTGTGGTACACACACGGTATGTCAGAGCCGGAGTCACCTAGTGCAG”, 3220 fluorescence intensity (a.u.); under “ACCATTCCCAACAAGTCAGCAGCCACCACTGCAGCGCAGACGGAGTCACCTAGTGCAG”, 4060 fluorescence intensity (a.u.). Regarding “GGTGCCCTAATAAGTACGGTGGTTGAACATTACACAATTCCGGAGTCACCTAGTGCAG”, the binding signal was 3770 fluorescence intensity (a.u.). As to “CGGTCCACCCGTACTACGTGACGTATATGCCGAGCCGATTCGGAGTCACCTAGTGCAG”, the binding signal was 8300 fluorescence intensity (a.u.). Under “AAGCCAGCGAGCCTCCTCCACCACCGTCACCACCATGGGGCGGAGTCACCTAGTGCAG” stands 3300 fluorescence intensity (a.u.); under “TACTATTTTACACTTCATCTGATCATAAATATTTCACATACGGAGTCACCTAGTGCAG”, 29800 fluorescence intensity (a.u.). Consider “AGAGAATTTTGGGCTTGGTAGTCATGGCCCAGCAAATTTTCGGAGTCACCTAGTGCAG”, for which the binding signal is 3140 fluorescence intensity (a.u.). Under “GGCGCGCGCGTCGAGGACGTGGTTCACGAAGGCGACGAACCGGAGTCACCTAGTGCAG” stands 3300 fluorescence intensity (a.u.); under “ATCAACAACTGTATTTAAAATGGGACGAATAGAGTAAATGCGGAGTCACCTAGTGCAG”, 20200 fluorescence intensity (a.u.). With “CGGACTGACCGACTGCTTTAGGTGACACGGCATGTAGCTTCGGAGTCACCTAGTGCAG”, the binding signal is 5520 fluorescence intensity (a.u.). To “ACTAATCATCGCCATGTCATAGCCACGTTAGTTGCCGCCTCGGAGTCACCTAGTGCAG” belongs 17400 fluorescence intensity (a.u.). For the sequence “GCGCTTGCGCCTGACCGCCGCGTGACGACATGTTGTCACCCGGAGTCACCTAGTGCAG”, the binding signal was 6800 fluorescence intensity (a.u.). To “TCTGTTAGTGTCATACTGTCATCGACATATAATATTCCCTCGGAGTCACCTAGTGCAG” belongs 42500 fluorescence intensity (a.u.). Consider “TACAGGCGGATTACGTAATTTGTTTTGTTATTAGACTACGCGGAGTCACCTAGTGCAG”, for which the binding signal is 3260 fluorescence intensity (a.u.). To “ACCAGTGTTGAGCTTCGCTCCTCATCCAGGTCACGCTCATCGGAGTCACCTAGTGCAG” belongs 4820 fluorescence intensity (a.u.); to “AAACGAATATTATCTTCTCGTAGCCACGTGCATTCTGTAGCGGAGTCACCTAGTGCAG”, 5270 fluorescence intensity (a.u.); to “CGCGGCCCAACACCTGCCACGCCGAACTCAACCACCCGAACGGAGTCACCTAGTGCAG”, 3920 fluorescence intensity (a.u.). Under “CTCGCATCCGGTGTATCACCACTCCACCATACATCCTCCCCGGAGTCACCTAGTGCAG” stands 32300 fluorescence intensity (a.u.). On to “TCATGTTCATTCTGATCGGTGCATGCGTGTTCAGTTGGATCGGAGTCACCTAGTGCAG”, for which the binding signal was 4930 fluorescence intensity (a.u.). Under “TTCCAACTTCCTCCGCGTCACAACTCACAACAGAAGCGGACGGAGTCACCTAGTGCAG” stands 3850 fluorescence intensity (a.u.); under “ACAAGCATTATAACAAACATCTCACTTCTTCTGCATGCCACGGAGTCACCTAGTGCAG”, 3260 fluorescence intensity (a.u.).
